In patent US20210181182A1, “METHOD FOR IDENTIFICATION OF PERTURBAGENS OF PARTICULAR BIOLOGICAL PROCESSES AND CELL SYSTEMS WITHIN LIVING CELLS” (priority 2018, published 2021):

System: mitochondrial electron transport chain (mETC)
Assay: FACTORIAL assay: similarity of TFAP to the consensus (invariant) mETC TFAP
Format: cell-based, human
Settings: 24 h

Structure (SMILES): CCOC(=O)N1CCC(=C2c3ccc(Cl)cc3CCc3cccnc32)CC1 [Loratadine, reference compound]
- Pearson correlation with the mETC TFAP, r: 0.814
